For four substances, Bmax results are on record in US9346854B2, “Anti-inflammatory peptides and use thereof” (Yeda Research and Development Co. Ltd., priority 2012, dated 2016).

No end group written: not given here.

A short description of this data set: LPS binding assay with NBD-labeled peptides. As to conditions: NBD-labeled peptide, indication of final oligomerization state. Here is the method:
NBD-labeled peptides (50 μl, 2 μM, PBS^−/− 2% DMSO) were added to different concentrations of LPS (50 μl PBS^−/−) in a opaque black 96 well plate. After 10 minutes of incubation at room temperature, the fluorescence was measured using an excitation of 467 nm and emission of 530 nm. The data were plotted and Kd and Bmax values obtained using NLLSQ analysis.
ALALALALALALALALALKK-NH2 [(AL)9K2] showed a Bmax of 312 A.U.

For the substance “KALALALKALALKALALALK-NH2 [K(AL)3K(AL)2K(AL)3K]”, the Bmax is listed as 1810 A.U.

Substance “KKALALALALALAKK-NH2 [K2(AL)5AK2, KKALALALALALAKK]” had a Bmax of 4517 A.U.

Consider KKALALALALALALALALKK [4D-K2(AL)8K2], for which the Bmax came out at 4678 A.U.
